Results from patent US20080064629A1, “Amphiregulin as a Protective Agent in Acute Hepatic Injury” (priority 2004, published 2008).
For at least one compound, name, drawing or mass did not settle the structure.

What was measured:
[1] = test system: mouse hepatocytes in primary culture; assay: Apoptosis induced by actinomycin D and Jo2 antibody in mouse hepatocytes in primary culture; type: cell-based; details: AR 20 nM, PD153035 1 μM, PD98059 10 μM, LY-294002 20 μM
Text: In order to determine whether the in vivo antiapoptotic effects of AR could be mediated by direct action of AR on liver parenchymal cells, the inventors used mouse hepatocytes in primary culture. It has been reported that hepatocytes exposed to Jo-2 antibodies undergo apoptosis effectively in presence of actinomycin D [(5), (6), (33) Ni, R., Tomita, Y., Matsuda, K., Ichiara, A., Ishimura, K., Ogasawara, J., Nagata, S. 1994. Fas-mediated apoptosis in primary cultured mouse hepatocytes. Exp. Cell Res. 215: 332-337]. Hepatocytes were pretreated with different concentrations of AR during […] before addition of actinomycin D and Jo2 antibody. Measurements of apoptosis and related molecular events, were made 18 h later. […] Likewise, they found antiapoptotic protein Bcl-xL to be induced by treatment with AR in mouse hepatocytes treated with Jo2 (FIG. 4B). […]
Apoptosis was induced in cultured mouse hepatocytes by treatment with 0.5 μg/ml of Jo2 antibody and 0.05 μg/ml of actinomycin D as described elsewhere (5). […] The specific enrichment of mono- and oligonucleosomes released in the cytoplasm (enrichment factor, EF) was calculated as the ratio between the absorbance values of the samples corresponding to treated cells and control cells. […]
Caspase-3 activity in mouse hepatocytes and liver tissue lysates was assessed using the Caspase-3/CPP32 colorimetric assay kit (BioVision, Palo Alto, Calif., USA). […]

[2] = test system: AR gene expression in rat hepatocytes; assay: AR gene expression in cultured rat hepatocytes (real time PCR); type: cell-based; details: IL-1β 2 ng/ml; PGE2 10 μM; forskolin, hydrogen peroxide, menadione data not shown
Method: Hepatocytes were isolated from male Wistar rats (150 g) and C57/BL6 mice (20 g) by perfusion with collagenase (Gibco-BRL, Paisley, UK) as described elsewhere [(18), (20)]. Cells (5×10^5 cells per well) were plated onto 6-well plates coated with collagen (type I collagen, Collaborative Biomedical, Bedford, Mass., USA). Cultures were maintained in MEM medium supplemented with 10% fetal calf serum (FCS), non-essential amino acids, glutamine 2 mM and antibiotics (all supplied by Gibco-BRL). After 2 h of incubation, the medium was removed and cells were again cultured in the same medium with 5% FCS. […]
Total RNA was extracted using TRI reagent (Sigma). […] PCR products were subjected to electrophoresis in 2% agarose gels, followed by staining with ethidium bromide and quantification using Molecular Analyst software (Bio-Rad, Hercules, Calif., USA). […]
Real time PCR was performed using an iCycler (BioRad) and iQ SYBR Green Supermix (Bio-Rad). In order to monitor the specificity of final PCR products, the latter were analysed by fusion curves and electrophoresis. The amount of each transcript was expressed as n-fold the difference versus expression of the reference gene (β-actin)(2^ΔCt, where ΔCt represents the difference in threshold cycle between target genes and control gene).

O=c1cc(N2CCOCC2)oc2c(-c3ccccc3)cccc12 [LY294002, reference compound]
effect of inhibitor on the protection against apoptosis afforded by AR [1]: marked inhibitory effect

C=C[C@@]1(C)CC(=O)[C@]2(O)[C@@]3(C)[C@@H](O)CCC(C)(C)[C@@H]3[C@H](O)[C@H](OC(C)=O)[C@@]2(C)O1 [forskolin]
AR gene expression [2]: promoted expression
